According to US9844540B2, “Combination therapies for treating cancer” (RedHill Biopharma Ltd., priority 2015, dated 2017):
At least one compound was matched to its structure with a doubt left.

Test system: LPS-induced cytokine production
Assay: LPS-induced cytokine production in C57BL/6 mice
Assay type: in vivo
Conditions: serum 2 hours after LPS; in words
Procedure: This study was performed to evaluate the effects of RHB-104 (as detailed above) dosed orally at 108 mg/kg on lipopolysaccharide (LPS)-induced cytokine production in mice. The LPS-induced cytokine production model in mice is commonly used to test the ability of compounds to suppress production of pro-inflammatory cytokines TNF and IL-6 in vivo.
In this model LPS is injected into mice intraperitoneally (i.p.) or intravenously. Two hours after the LPS injection, concentrations of IL-6 and TNF reach peak levels in serum of the injected mice.
30 female C57BL/6 mice, 11 weeks old, were dosed once with RHB-104, then injected with LPS 1 hour later. 2 hours after LPS injection, mice were bled and serum was isolated. The concentration of cytokines in serum was measured. Dexamethasone administered at 5 mg/kg i.p. was used as positive control for suppression of the immune response. Dexamethasone suppresses production of pro-inflammatory cytokines TNF and IL-6 increases production of anti-inflammatory cytokine IL-10.
Serum concentrations of IL-2, IL-4, IL-6, IL-10, IL-17, IFN-γ and TNF were measured using cytokine bead analysis (CBA) Th1/Th2/Th17 kit (Becton Dickinson). Concentrations of cytokines in serum between groups were compared using 2-tailed Student's t-test.

C[C@@H]1C[C@H]2[C@@H]3CCC4=CC(=O)C=C[C@]4(C)[C@@]3(F)[C@@H](O)C[C@]2(C)[C@@]1(O)C(=O)CO [Dexamethasone, dexamethasone]
serum concentration of IL-6 compared with vehicle treated group: significantly lower than in the vehicle treated group | serum concentration of IL-10 compared with vehicle group: higher than in the vehicle group, but the difference was not statistically significant | serum concentration of TNF compared with vehicle treated group: significantly lower than in the vehicle treated group
